Library screening results

Measurements from “University of Dundee, Small-Polar-MMV Screening Library” (2021), ChEMBL document CHEMBL3988442.

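Whole-cell assay for inhibitors of Mycobacterium tuberculosis growth, labelled Cornell in the record; the read-out is not stated. The concentration is filed as 10 mM, unlikely as a test dose, so the dose is not known. Higher means stronger inhibition (inferred from two other growth screens of the library). About 53,000 compounds were tested under these conditions; 1.7% (about 900) showed 50% or more at least once.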

The filed quantity is “Percent Effect” (%). How 0% and 100% were set is not recorded. Most values in the screen are low, and negative values occur. The compounds are a random part of those screened.

structure,Percent Effect
N#Cc1cccc(S(=O)(=O)N2CC(CC(=O)O)c3ccccc32)c1 (stereo unspecified),22.82
COc1nc2c(cc1C(=O)N1CCCC1c1ccccn1)CCC2 (stereo unspecified),14.75
CCc1nnsc1C(=O)NC1CCN(CCOc2ccc(Br)cc2)CC1,32.07
[H][C@@]12C[C@H](C(=O)N(C)C)[C@@]([H])(CN(c3ncccn3)C1)O2,20.84
CN(C)c1nccnc1C1CCN(C(=O)C2(C)CCCCN2C)CC1 (stereo unspecified),33.54
NC(=O)C1CCN(C(=O)NCc2ccccc2Cn2ccnc2)CC1,-7.101
CCNC(=O)N1C[C@@H](NC(C)=O)[C@H](c2ccc(C)o2)C1,-21.05
CCc1nc(CN2CCCN(C(=O)c3cnc[nH]3)CC2)cs1,23.71
CCc1nnc2n1CCN(Cc1nc(-c3ccoc3)no1)C2,14.3
Cc1cc(C(=O)N2CCc3nc(N4CCCC4)nc(C)c3CC2)c(C)o1,18.15
CC(C)Oc1ccc(CN2CCN3CCN(C)CC3C2)cc1CO (stereo unspecified),-8.442
c1cc(-c2n[nH]c(CNc3nnc(C4CC4)o3)n2)ccn1,-0.6137
O=C(O)c1ccc(=O)n(CC(c2ccc(Cl)cc2)N2CCOCC2)c1 (stereo unspecified),-6.68
Cc1ccc(C)c2c(O)cc(CNCCNC(=O)C(C)C)nc12,-14.73
CN(CCc1cccc2ccccc12)Cc1nc(N)nc(N(C)C)n1,1.228
O=C(Cc1ccccc1F)NCC1CCN(CCc2ccccc2)C1 (stereo unspecified),25.62
Cn1cnc2c1CCN(CCS(=O)(=O)c1ccc(Cl)cc1)C2,-6.56
COCCO[C@@H]1CCN(C(=O)c2ccc(C)o2)[C@@H]1Cc1cnn(C)c1,24.55
Cc1cc(Nc2ccc(F)cn2)cc(C2CCN(Cc3ncc[nH]3)C2)n1 (stereo unspecified),67.32
CC1CN(S(=O)(=O)c2cc(S(C)(=O)=O)ccc2Br)c2cccnc2O1 (stereo unspecified),8.424
N#Cc1cc2c(nc1SCc1cc(O)nc(O)n1)CCCCC2,-11.66
CCc1ncc2c(n1)CN(CC(=O)N1CCc3sccc3C1)CC2,15.23
O=C(c1ccc2[nH]nnc2c1)N1CCC(Nc2cccnn2)CC1,-38.17
CCN(CC)CCN(C)Cc1cn(C)nc1-c1ccc2c(c1)OCCO2,-35.17
CC(=O)NCC1CCN(C(=O)NCCc2ccc3c(c2)OCO3)CC1,19.73
Cc1cnn(CCNCC(=O)NC(C)c2ccc3c(c2)OCCO3)c1 (stereo unspecified),1.184
O=C(CN1CCOCC1CC(=O)c1ccco1)NCc1ccccn1 (stereo unspecified),-2.089
CC(C)[C@@H]1CN(C(=O)c2ccc3c(c2)CCCO3)C[C@H]1NS(C)(=O)=O,28.46
O=C(O)C(F)(F)F.[H][C@@]12C[C@@H](c3nc(C)no3)O[C@]1([H])CN(Cc1scnc1C)C2,11.18
CC(C1CCN(Cc2c(Cl)ccc(O)c2Cl)CC1)N1CCN(C)CC1 (stereo unspecified),17.89
CC(=O)NCCn1ccnc1-c1cccc(C(C)N(C)C)c1 (stereo unspecified),-30.49
O=C(NC[C@H]1OC[C@@H](NCc2ccccn2)[C@@H]1O)c1ccc(F)cc1,-28.23
CCN(CC(=O)Nc1cc(Cl)ccc1C)C(=O)c1ccc(=O)[nH]n1,-1.582
NC(=O)NCC(=O)N1CCCC(c2nccn2CC2CCC2)C1 (stereo unspecified),1.655
Cc1nccn1-c1ccc(N2CCC(NC(C)CC(C)C)CC2)cc1 (stereo unspecified),-11.12
Cn1cc(S(=O)(=O)NCCc2nnc3ccccn23)cn1,-5.23
[H][C@@]12CS(=O)(=O)C[C@]1([H])N(Cc1cc(OC)cc(OC)c1)CCN2CC1CC1,-15.67
CN(Cc1c(Cl)ccc2cccnc12)CC(C)(CO)CO,-7.374
OCCOCCN1CCCC1c1nc2cc(F)ccc2[nH]1 (stereo unspecified),-5.85
CCCc1cc(C(=O)N2Cc3cnc(C(C)(C)C)nc3C2)ccn1,4.792
COc1ncccc1C(=O)NCCn1cnc(C)cc1=O,-0.07102
CCc1nnc(C(C)N(C)Cc2c(C)nn(-c3ccccc3)c2C)o1 (stereo unspecified),14.53
COCC(=O)N1CC(c2ccnc(Nc3cc(C(F)(F)F)ccn3)n2)C1,-20.25
Fc1cc(CN2CCOC3(CCOCC3)C2)ccc1Cl,18.83
COCC(C)NC(=O)c1cn(C(C)C)cc2c(=O)[nH]nc1-2 (stereo unspecified),-24.9
CC(Nc1ccc2c(c1)CCC2)c1nc(C2CC2)no1 (stereo unspecified),27.18
Cc1nn(C)cc1-c1nn2c(C(F)(F)F)nnc2s1,-35.94

Repeated from the top, 4 entries:

structure	Percent Effect
N#Cc1cccc(S(=O)(=O)N2CC(CC(=O)O)c3ccccc32)c1 (stereo unspecified)	22.82
COc1nc2c(cc1C(=O)N1CCCC1c1ccccn1)CCC2 (stereo unspecified)	14.75
CCc1nnsc1C(=O)NC1CCN(CCOc2ccc(Br)cc2)CC1	32.07
[H][C@@]12C[C@H](C(=O)N(C)C)[C@@]([H])(CN(c3ncccn3)C1)O2	20.84